Reference: the supplement of paper PMC10849652
This is one part of the list.

Chains of the proteins cited; added tags and fusions are not shown. Lines headed by an entry give the natural chain unless they say otherwise; changes in a name come on top.
UniProt P10109: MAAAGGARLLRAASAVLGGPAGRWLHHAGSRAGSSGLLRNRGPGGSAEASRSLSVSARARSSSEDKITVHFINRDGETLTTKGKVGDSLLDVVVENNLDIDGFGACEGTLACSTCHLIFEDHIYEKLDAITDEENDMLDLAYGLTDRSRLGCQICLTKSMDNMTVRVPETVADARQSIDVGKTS
UniProt Q9Y680: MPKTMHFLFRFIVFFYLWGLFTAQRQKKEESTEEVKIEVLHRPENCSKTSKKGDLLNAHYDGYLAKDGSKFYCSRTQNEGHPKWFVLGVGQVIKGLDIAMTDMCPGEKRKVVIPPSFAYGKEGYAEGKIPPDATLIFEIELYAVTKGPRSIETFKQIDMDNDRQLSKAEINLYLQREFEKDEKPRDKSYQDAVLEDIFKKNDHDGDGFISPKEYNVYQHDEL
UniProt Q6ZV73: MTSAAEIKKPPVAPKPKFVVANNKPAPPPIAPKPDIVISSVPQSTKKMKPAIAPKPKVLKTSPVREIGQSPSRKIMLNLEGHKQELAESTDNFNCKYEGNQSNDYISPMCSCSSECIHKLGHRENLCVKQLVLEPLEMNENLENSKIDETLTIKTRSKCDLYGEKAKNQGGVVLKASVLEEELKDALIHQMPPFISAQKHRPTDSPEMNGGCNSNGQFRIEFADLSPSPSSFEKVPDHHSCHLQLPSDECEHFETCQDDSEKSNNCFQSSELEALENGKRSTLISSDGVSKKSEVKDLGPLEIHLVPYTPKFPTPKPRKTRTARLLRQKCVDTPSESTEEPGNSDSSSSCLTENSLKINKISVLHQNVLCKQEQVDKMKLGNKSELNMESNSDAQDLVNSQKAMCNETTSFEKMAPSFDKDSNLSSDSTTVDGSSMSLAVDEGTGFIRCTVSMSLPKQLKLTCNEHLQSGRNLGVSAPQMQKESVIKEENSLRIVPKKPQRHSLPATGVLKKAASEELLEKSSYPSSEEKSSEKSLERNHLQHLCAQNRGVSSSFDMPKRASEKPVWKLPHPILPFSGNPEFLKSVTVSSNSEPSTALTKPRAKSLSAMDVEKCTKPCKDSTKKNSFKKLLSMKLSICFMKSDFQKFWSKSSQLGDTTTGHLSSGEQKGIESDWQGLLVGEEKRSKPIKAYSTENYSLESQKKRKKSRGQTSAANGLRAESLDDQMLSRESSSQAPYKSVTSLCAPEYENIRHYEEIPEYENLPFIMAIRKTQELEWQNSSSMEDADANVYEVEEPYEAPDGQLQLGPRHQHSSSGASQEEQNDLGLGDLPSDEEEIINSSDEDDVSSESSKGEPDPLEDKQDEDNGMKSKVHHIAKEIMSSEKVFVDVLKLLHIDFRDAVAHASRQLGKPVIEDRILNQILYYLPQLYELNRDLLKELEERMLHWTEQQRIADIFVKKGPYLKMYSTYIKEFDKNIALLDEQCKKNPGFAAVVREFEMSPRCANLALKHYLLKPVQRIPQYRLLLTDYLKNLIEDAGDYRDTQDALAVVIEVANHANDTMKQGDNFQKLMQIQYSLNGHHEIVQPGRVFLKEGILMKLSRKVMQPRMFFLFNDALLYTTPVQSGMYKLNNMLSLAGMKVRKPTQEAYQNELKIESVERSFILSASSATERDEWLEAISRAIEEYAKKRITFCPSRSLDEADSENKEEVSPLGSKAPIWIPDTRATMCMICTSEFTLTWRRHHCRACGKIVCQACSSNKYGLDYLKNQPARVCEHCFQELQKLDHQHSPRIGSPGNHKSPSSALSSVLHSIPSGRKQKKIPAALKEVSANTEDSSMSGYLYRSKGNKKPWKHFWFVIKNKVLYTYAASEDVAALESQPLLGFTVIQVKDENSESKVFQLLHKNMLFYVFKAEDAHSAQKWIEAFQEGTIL
UniProt Q9Y3I1: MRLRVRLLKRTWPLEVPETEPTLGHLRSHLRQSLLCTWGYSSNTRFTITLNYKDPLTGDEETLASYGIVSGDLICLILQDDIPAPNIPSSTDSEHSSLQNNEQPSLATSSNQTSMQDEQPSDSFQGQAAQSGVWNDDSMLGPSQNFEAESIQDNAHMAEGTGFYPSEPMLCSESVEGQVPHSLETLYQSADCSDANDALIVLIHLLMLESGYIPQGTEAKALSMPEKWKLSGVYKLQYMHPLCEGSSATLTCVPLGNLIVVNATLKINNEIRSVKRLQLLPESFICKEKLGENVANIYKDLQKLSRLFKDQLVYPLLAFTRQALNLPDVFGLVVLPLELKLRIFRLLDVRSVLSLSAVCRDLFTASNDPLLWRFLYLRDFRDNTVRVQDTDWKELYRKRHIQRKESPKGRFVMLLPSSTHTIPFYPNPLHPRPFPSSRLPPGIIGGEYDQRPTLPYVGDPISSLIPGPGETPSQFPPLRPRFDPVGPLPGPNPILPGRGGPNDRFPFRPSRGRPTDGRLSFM
UniProt Q9UKT4: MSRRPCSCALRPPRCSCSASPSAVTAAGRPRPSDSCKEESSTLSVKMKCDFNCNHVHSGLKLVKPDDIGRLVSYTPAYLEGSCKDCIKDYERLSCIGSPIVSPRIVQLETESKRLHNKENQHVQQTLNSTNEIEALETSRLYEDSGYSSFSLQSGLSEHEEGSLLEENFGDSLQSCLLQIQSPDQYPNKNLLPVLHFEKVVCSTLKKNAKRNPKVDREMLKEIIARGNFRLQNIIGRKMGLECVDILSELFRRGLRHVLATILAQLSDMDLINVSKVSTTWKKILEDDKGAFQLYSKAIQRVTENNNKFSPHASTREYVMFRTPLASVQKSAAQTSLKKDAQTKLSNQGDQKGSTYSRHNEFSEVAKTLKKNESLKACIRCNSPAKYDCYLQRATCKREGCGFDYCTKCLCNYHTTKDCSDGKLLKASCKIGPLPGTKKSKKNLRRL
UniProt Q96C11: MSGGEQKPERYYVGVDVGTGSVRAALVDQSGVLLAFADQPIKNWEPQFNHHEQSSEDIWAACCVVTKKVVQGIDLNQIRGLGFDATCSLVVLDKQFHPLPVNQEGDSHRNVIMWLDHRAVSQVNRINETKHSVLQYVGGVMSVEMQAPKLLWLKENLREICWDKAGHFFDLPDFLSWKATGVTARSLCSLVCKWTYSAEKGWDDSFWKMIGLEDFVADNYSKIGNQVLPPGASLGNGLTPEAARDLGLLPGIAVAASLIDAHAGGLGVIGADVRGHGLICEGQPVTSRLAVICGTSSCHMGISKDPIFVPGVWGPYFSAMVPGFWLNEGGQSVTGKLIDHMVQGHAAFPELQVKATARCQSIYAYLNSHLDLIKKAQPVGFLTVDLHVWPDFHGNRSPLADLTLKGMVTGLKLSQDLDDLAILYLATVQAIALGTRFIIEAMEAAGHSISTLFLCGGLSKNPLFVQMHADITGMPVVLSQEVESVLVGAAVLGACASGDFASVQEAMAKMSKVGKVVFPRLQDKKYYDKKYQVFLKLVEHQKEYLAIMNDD
UniProt Q13045: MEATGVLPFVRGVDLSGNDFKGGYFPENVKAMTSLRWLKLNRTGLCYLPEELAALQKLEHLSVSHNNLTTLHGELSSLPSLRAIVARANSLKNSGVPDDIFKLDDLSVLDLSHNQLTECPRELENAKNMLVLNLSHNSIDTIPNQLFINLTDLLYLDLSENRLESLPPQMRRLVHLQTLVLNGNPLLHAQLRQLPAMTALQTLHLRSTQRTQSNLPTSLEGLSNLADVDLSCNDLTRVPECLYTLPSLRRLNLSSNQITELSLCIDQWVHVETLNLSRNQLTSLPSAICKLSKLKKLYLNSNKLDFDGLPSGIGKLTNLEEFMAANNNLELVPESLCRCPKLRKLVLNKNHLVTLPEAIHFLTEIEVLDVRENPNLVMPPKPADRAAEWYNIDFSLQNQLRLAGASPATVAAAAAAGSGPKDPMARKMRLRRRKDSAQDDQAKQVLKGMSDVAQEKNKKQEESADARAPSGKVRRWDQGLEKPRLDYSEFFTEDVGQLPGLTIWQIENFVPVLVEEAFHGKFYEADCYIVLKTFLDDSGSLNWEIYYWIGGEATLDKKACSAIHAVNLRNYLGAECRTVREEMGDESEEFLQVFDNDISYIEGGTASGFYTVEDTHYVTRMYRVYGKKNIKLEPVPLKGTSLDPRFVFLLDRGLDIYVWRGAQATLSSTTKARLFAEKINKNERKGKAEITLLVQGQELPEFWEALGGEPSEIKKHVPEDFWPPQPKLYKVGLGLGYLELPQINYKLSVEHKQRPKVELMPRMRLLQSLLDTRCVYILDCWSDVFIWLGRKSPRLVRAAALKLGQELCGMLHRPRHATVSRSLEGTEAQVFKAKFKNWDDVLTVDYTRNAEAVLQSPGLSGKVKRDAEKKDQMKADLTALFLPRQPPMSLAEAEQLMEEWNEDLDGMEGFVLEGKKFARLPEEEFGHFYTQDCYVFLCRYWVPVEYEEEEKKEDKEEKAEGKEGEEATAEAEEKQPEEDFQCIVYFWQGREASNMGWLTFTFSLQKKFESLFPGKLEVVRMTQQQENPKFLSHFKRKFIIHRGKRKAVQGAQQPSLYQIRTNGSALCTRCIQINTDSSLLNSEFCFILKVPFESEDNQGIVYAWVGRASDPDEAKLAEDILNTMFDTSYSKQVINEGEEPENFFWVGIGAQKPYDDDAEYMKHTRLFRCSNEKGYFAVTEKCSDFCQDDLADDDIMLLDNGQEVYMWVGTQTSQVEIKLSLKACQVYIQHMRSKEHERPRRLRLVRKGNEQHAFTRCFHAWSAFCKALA
UniProt Q9NXK8: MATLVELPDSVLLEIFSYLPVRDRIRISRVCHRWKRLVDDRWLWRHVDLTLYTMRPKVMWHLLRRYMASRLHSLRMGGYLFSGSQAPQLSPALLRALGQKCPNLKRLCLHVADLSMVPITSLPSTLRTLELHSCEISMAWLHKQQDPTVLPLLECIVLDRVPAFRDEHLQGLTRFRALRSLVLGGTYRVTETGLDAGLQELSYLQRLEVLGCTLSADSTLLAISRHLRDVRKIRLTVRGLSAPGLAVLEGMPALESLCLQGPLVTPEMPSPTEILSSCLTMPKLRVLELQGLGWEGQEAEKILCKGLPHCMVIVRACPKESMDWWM
UniProt Q9UK22: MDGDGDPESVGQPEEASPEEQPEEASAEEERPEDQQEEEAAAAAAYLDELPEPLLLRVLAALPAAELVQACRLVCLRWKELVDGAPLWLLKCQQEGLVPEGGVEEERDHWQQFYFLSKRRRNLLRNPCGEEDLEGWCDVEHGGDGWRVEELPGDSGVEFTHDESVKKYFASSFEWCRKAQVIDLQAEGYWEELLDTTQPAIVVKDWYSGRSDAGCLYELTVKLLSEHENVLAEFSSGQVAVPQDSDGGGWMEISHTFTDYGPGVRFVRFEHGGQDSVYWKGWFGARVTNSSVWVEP
UniProt Q96CP2: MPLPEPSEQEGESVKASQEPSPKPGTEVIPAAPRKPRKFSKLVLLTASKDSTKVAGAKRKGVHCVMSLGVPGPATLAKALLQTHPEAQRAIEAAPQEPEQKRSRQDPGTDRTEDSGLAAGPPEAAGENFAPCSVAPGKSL
UniProt Q8TF40: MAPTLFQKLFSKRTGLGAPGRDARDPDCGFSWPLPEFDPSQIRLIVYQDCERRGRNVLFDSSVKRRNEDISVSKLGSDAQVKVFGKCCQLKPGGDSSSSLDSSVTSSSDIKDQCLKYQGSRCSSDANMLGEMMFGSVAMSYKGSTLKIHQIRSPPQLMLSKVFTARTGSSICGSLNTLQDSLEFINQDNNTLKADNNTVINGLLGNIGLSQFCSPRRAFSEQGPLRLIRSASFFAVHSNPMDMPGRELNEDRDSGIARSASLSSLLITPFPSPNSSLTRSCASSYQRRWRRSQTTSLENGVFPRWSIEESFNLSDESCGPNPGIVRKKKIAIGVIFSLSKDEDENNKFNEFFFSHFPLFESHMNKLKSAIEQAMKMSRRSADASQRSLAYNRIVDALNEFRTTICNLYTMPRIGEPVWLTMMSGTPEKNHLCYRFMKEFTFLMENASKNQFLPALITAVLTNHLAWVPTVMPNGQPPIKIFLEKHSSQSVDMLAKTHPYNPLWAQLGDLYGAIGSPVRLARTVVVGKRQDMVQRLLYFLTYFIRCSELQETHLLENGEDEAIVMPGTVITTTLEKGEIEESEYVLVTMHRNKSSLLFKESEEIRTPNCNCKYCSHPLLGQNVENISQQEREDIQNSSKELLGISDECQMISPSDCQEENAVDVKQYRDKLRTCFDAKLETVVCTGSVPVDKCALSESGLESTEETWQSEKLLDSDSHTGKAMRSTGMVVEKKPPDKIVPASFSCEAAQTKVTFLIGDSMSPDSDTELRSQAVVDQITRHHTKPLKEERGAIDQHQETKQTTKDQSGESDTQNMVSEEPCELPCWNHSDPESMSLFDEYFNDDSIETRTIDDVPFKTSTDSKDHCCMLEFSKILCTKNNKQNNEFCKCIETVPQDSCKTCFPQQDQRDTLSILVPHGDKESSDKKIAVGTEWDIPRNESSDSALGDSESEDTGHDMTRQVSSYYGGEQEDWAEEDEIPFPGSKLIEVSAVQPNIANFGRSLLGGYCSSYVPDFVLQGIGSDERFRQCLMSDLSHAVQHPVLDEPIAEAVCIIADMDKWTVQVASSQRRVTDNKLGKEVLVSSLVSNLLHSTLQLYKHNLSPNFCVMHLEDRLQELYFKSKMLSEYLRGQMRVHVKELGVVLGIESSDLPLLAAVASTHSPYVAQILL

compound: CS(=O)(=O)CCNCc1ccc(-c2ccc3ncnc(Nc4ccc(OCc5cccc(F)c5)c(Cl)c4)c3c2)o1 [lapatinib]; experiment: log2 fold change, soluble protein after heating vs DMSO (PISA); higher = thermal stabilisation; K562 lysate, 10 uM; active = over 0.2 and 3.5 SD of the protein, either way, in both replicates (recomputed)
Procedure, shortened: (§1)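 Soluble protein was defined as the supernatant remaining after 21,000xg for 90 min, following pooling of heated aliquots and adjustment to 0.5% NP-40 at 4°C. Before that, crude K562 extract at 1 mg/mL protein in PBS pH 7.4 with 1 mM MgCl2 was treated with 10 μM compound for 30 min and heated for 3 min across 48°C-58°C. Quantification used TMTpro 16plex LC-MS/MS with channel sums equalised, and values are log-two fold changes in thermal stability relative to solvent controls from duplicates.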

Target	log2 fold change
FN3K (UniProt Q9H479)	inactive: -0.007
FBXL8 (UniProt Q96CD0)	inactive: -0.024
FARSA (UniProt Q9Y285)	inactive: -0.028
FKBP2 (UniProt P26885)	inactive: 0.031
FDX1 (UniProt P10109)	inactive: 0.047
FGFR1OP2 (UniProt Q9NVK5)	inactive: 0.011
FKBP7 (UniProt Q9Y680)	inactive: -0.011
FGD6 (UniProt Q6ZV73)	inactive: 0.673
FECH isoform 2 (UniProt P22830)	inactive: -0.099
FBXW11 (UniProt Q9UKB1)	inactive: 0.065
FANCI (UniProt Q9NVI1)	inactive: -0.015
FBXO7 (UniProt Q9Y3I1)	inactive: -0.006
FHL3 (UniProt Q13643)	inactive: 0.11
FDX2 (UniProt Q6P4F2)	inactive: 0.047
FNTB (UniProt P49356)	inactive: 0.027
FBXO5 (UniProt Q9UKT4)	inactive: -0.195
FMNL1 isoform 3 (UniProt O95466)	inactive: 0.058

Target	log2 fold change
FLOT1 (UniProt O75955)	inactive: -0.046
FGGY isoform 3 (UniProt Q96C11)	inactive: -0.008
FEM1B (UniProt Q9UK73)	inactive: -0.144
FNTA (UniProt P49354)	inactive: 0
FBXO3 (UniProt Q9UK99)	inactive: -0.028
FAM8A1 (UniProt Q9UBU6)	inactive: -0.055
FDFT1 (UniProt P37268)	inactive: -0.037
FMR1 (UniProt Q06787)	inactive: -0.01
FNBP4 isoform 2 (UniProt Q8N3X1)	inactive: 0.01
FLII (UniProt Q13045)	inactive: 0.004
FEN1 (UniProt P39748)	inactive: -0.041
FCHO1 (UniProt O14526)	inactive: -0.034
FBXL12 (UniProt Q9NXK8)	inactive: 0.009
FBXO2 (UniProt Q9UK22)	inactive: -0.022
FLYWCH2 (UniProt Q96CP2)	inactive: 0.015
FNIP1 isoform 3 (UniProt Q8TF40)	inactive: 0.007

compound: CS(=O)(=O)N1CCN(Cc2cc3nc(-c4cccc5[nH]ncc45)nc(N4CCOCC4)c3s2)CC1 [pictilisib]; experiment: as above
Procedure, shortened: as §1

Target	log2 fold change
FN3K (UniProt Q9H479)	inactive: 0.004
FBXL8 (UniProt Q96CD0)	inactive: 0.008
FARSA (UniProt Q9Y285)	inactive: 0.012
FKBP2 (UniProt P26885)	inactive: -0.014
FDX1 (UniProt P10109)	inactive: 0.016
FGFR1OP2 (UniProt Q9NVK5)	inactive: -0.022
FKBP7 (UniProt Q9Y680)	inactive: -0.029
FGD6 (UniProt Q6ZV73)	inactive: 0.468
FECH isoform 2 (UniProt P22830)	inactive: 0.64
FBXW11 (UniProt Q9UKB1)	inactive: 0.007
FANCI (UniProt Q9NVI1)	inactive: -0.034
FBXO7 (UniProt Q9Y3I1)	inactive: -0.109
FHL3 (UniProt Q13643)	inactive: 0.017
FDX2 (UniProt Q6P4F2)	inactive: -0.169
FNTB (UniProt P49356)	inactive: -0.052
FBXO5 (UniProt Q9UKT4)	inactive: -0.001
FMNL1 isoform 3 (UniProt O95466)	inactive: 0.005

Target	log2 fold change
FLOT1 (UniProt O75955)	inactive: -0.018
FGGY isoform 3 (UniProt Q96C11)	inactive: 0.191
FEM1B (UniProt Q9UK73)	inactive: 0.072
FNTA (UniProt P49354)	inactive: 0.016
FBXO3 (UniProt Q9UK99)	inactive: -0.036
FAM8A1 (UniProt Q9UBU6)	inactive: -0.117
FDFT1 (UniProt P37268)	inactive: -0.018
FMR1 (UniProt Q06787)	inactive: -0.084
FNBP4 isoform 2 (UniProt Q8N3X1)	inactive: -0.005
FLII (UniProt Q13045)	inactive: 0.01
FEN1 (UniProt P39748)	inactive: 0.02
FCHO1 (UniProt O14526)	inactive: 0.027
FBXL12 (UniProt Q9NXK8)	inactive: 0.028
FBXO2 (UniProt Q9UK22)	inactive: 0.008
FLYWCH2 (UniProt Q96CP2)	inactive: -0.057
FNIP1 isoform 3 (UniProt Q8TF40)	inactive: -0.122

compound: C[C@@H](Oc1cc(-c2cnn(C3CCNCC3)c2)cnc1N)c1c(Cl)ccc(F)c1Cl [crizotinib]; experiment: as above
Procedure, shortened: as §1

Target	log2 fold change
FN3K (UniProt Q9H479)	inactive: 0.03
FBXL8 (UniProt Q96CD0)	inactive: -0.05
FARSA (UniProt Q9Y285)	inactive: -0.05
FKBP2 (UniProt P26885)	inactive: 0.083
FDX1 (UniProt P10109)	inactive: -0.001
FGFR1OP2 (UniProt Q9NVK5)	inactive: 0.013
FKBP7 (UniProt Q9Y680)	inactive: 0.019
FGD6 (UniProt Q6ZV73)	inactive: -0.108
FECH isoform 2 (UniProt P22830)	inactive: 0.027
FBXW11 (UniProt Q9UKB1)	inactive: -0.016
FANCI (UniProt Q9NVI1)	inactive: -0.09
FBXO7 (UniProt Q9Y3I1)	inactive: 0.045
FHL3 (UniProt Q13643)	inactive: 0.019
FDX2 (UniProt Q6P4F2)	inactive: 0.057
FNTB (UniProt P49356)	inactive: 0.032
FBXO5 (UniProt Q9UKT4)	inactive: 0.013
FMNL1 isoform 3 (UniProt O95466)	inactive: -0.013

Target	log2 fold change
FLOT1 (UniProt O75955)	inactive: -0.007
FGGY isoform 3 (UniProt Q96C11)	inactive: -0.005
FEM1B (UniProt Q9UK73)	inactive: -0.041
FNTA (UniProt P49354)	inactive: -0.032
FBXO3 (UniProt Q9UK99)	inactive: -0.02
FAM8A1 (UniProt Q9UBU6)	inactive: 0.039
FDFT1 (UniProt P37268)	inactive: 0.062
FMR1 (UniProt Q06787)	inactive: -0.011
FNBP4 isoform 2 (UniProt Q8N3X1)	inactive: 0.022
FLII (UniProt Q13045)	inactive: -0.051
FEN1 (UniProt P39748)	inactive: -0.036
FCHO1 (UniProt O14526)	inactive: -0.072
FBXL12 (UniProt Q9NXK8)	inactive: -0.047
FBXO2 (UniProt Q9UK22)	inactive: -0.063
FLYWCH2 (UniProt Q96CP2)	inactive: 0.029
FNIP1 isoform 3 (UniProt Q8TF40)	inactive: -0.052
